Peptide text beside a SMILES is read from it.
Tested on: RAW 264.7 macrophages
Experiment: PI staining of cell membrane, flow cytometry
Assay type: cell-based, mouse
Conditions: 24 h at 37 °C

CC[C@H](C)[C@@H]1NC(=O)[C@H](CO)NC(=O)[C@H](CCCCN)NC(=O)[C@@H]2CSSC[C@@H](C(=O)N[C@@H](Cc3ccc(O)cc3)C(=O)O)NC(=O)[C@H](CCCCN)NC(=O)[C@@H]3CSSC[C@H](NC(=O)[C@H](CCCCN)NC(=O)[C@H](C(C)C)NC(=O)[C@H](CC(=O)O)NC(=O)[C@H](CC(=O)O)NC(=O)[C@H](CCC(=O)O)NC(=O)[C@H](CCC(=O)O)NC(=O)[C@H](Cc4c[nH]c5ccccc45)NC(=O)[C@@H]4CCCN4C(=O)CNC(=O)[C@H](CC(N)=O)NC(=O)[C@@H](NC(=O)CNC(=O)[C@H](Cc4ccccc4)NC(=O)CN)CSSC[C@H](NC(=O)[C@H](Cc4ccc(O)cc4)NC(=O)CNC(=O)CNC(=O)[C@H](CCCCN)NC(=O)[C@H](Cc4ccc(O)cc4)NC(=O)CNC(=O)[C@H](CCCCN)NC1=O)C(=O)N[C@@H](C)C(=O)N[C@@H](CCCCN)C(=O)NCC(=O)NCC(=O)N[C@@H](Cc1ccccc1)C(=O)N[C@@H](C(C)C)C(=O)N3)C(=O)N[C@@H](Cc1c[nH]cn1)C(=O)N[C@@H](CC(N)=O)C(=O)N[C@@H](Cc1c[nH]cn1)C(=O)N2 [MP1102] (HELM PEPTIDE1{G.F.G.C.N.G.P.W.E.E.D.D.V.K.C.H.N.H.C.K.S.I.K.G.Y.K.G.G.Y.C.A.K.G.G.F.V.C.K.C.Y}$PEPTIDE1,PEPTIDE1,4:R3-30:R3|PEPTIDE1,PEPTIDE1,15:R3-37:R3|PEPTIDE1,PEPTIDE1,19:R3-39:R3$$$V2.0; N-terminus and C-terminus assumed; bridges inferred)
percentage of PI-staining in cells (25 μg/ml): 0.091% | percentage of PI-staining in cells (250 μg/ml): 0.51%

Source: article PMC5844868, “Increased intracellular activity of MP1102 and NZ2114 against Staphylococcus aureus in vitro and in vivo” (Scientific Reports, 2018)
